PubChem BioAssay AID720505, Drosophila RNAi Screening Center – 2013

Screen: 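Genes needed for store-operated calcium entry in fly cells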 (primary screen)
Cells: Drosophila S2R+ cells
Reagents: long dsRNA against Drosophila genes
Treatment: thapsigargin (2 µM) in calcium-free buffer to empty internal stores, then 2 mM calcium added back
Read-out: 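Fluo-4 signal in 384-well plates read on a FLIPR after thapsigargin (2 µM, calcium-free) store depletion and 2 mM calcium add-back; unnormalised mean endpoint per well; screen run twice, selected wells retested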
Reading the numbers: calcium signal and retest calcium signal: higher = more calcium entry after store depletion
Rule for the call: 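Knock-downs counted as hits when calcium entry dropped relative to STIM1 positive and Rho1 negative controls present on each plate; roughly 1500 genes called, with reductions of differing size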
Meaning of the calls: active = called as lowering calcium entry; inactive = not called
The screen tested about 20,000 reagents; below is an unselected part of those that have a named target and a result. In the full data, about 2,100 (10%) are marked active. 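Raw plate signals without normalisation; calls rest on control-based scores that were not deposited; replicate 2 separates called from uncalled poorly.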 Names joined by + are all predicted targets of the reagent. The record does not give: the amount of reagent, the time to read-out.

| gene | PubChem SID | calcium signal, replicate 1 | calcium signal, replicate 2 | retest calcium signal, replicate 1 | retest calcium signal, replicate 2 | activity call |
| --- | --- | --- | --- | --- | --- | --- |
| Actn3 (alpha actinin 3) | SID104193898 | 115 | 108 | – | – | inactive |
| Idgf1 (Imaginal disc growth factor 1) | SID104183141 | 86.3 | 111 | – | – | inactive |
| Non3 (Novel nucleolar protein 3) | SID104196151 | 142 | 223 | – | – | inactive |
| CG31368 | SID104194741 | 170 | 79.5 | – | – | inactive |
| CG31368 | SID104194743 | 86.9 | 163 | – | – | inactive |
| Tom20 (Translocase of outer membrane 20) | SID104190691 | 99.3 | 83.2 | – | – | inactive |
| IntS12 (Integrator 12) | SID104195610 | 112 | 105 | – | – | inactive |
| sicily (severe impairment of CI with lengthened youth) | SID104199496 | 85.1 | 86.3 | – | – | inactive |
| TotF (Turandot F) | SID104182097 | 79.9 | 110 | – | – | inactive |
| CG15019 | SID104188265 | 71.7 | 77.8 | – | – | inactive |
| Cds (CDP-diacylglycerol synthase) | SID104190730 | 74.8 | 97.6 | – | – | active |
| strat (stratum) | SID104182861 | 171 | 175 | – | – | inactive |
| CG2736 | SID104184106 | 135 | 92.6 | – | – | inactive |
| AOX4 (Aldehyde oxidase 4) | SID104195129 | 117 | 114 | – | – | inactive |
| CG7912 | SID104196135 | 179 | 116 | – | – | inactive |
| CG5516 | SID104195618 | 73.8 | 174 | – | – | inactive |
| CG5516 | SID104201422 | 144 | 92 | – | – | inactive |
| Oda (Ornithine decarboxylase antizyme) | SID104187418 | 125 | 147 | – | – | inactive |
| tst (twister) | SID104194004 | 211 | 287 | – | – | inactive |
| Shaw (Shaker cognate w) | SID104180225 | 72.8 | 142 | – | – | active |
| Shaw (Shaker cognate w) | SID104180580 | 139 | 73 | 69.2 | 86.7 | inactive |
| Shaw (Shaker cognate w) | SID104201139 | 81.5 | 123 | – | – | active |
| cutlet | SID104180076 | 134 | 123 | 101 | 93.9 | inactive |
| AP-1mu (Adaptor Protein complex 1, mu subunit) | SID104193881 | 112 | 176 | – | – | inactive |
| CG15642 | SID104199470 | 74.7 | 125 | – | – | inactive |
| CG17343 | SID104182398 | 174 | 125 | – | – | inactive |
| CG17343 | SID104202166 | 60.1 | 104 | – | – | active |
| Agps (Alkylglycerone phosphate synthase) | SID104185776 | 117 | 181 | – | – | inactive |
| CG32564 | SID104199725 | 110 | 110 | – | – | inactive |
| wry (weary) | SID104180144 | 228 | 107 | – | – | inactive |
| wry (weary) | SID104180248 | 206 | 128 | – | – | inactive |
| wry (weary) | SID104201888 | 91.9 | 161 | – | – | inactive |
| CG9839 | SID104196366 | 98.2 | 124 | – | – | inactive |
| Nacalpha (Nascent polypeptide associated complex protein alpha subunit) | SID104187269 | 146 | 91.2 | – | – | inactive |
| CG15468 | SID104197843 | 244 | 88.3 | – | – | inactive |
| CG6576 | SID104190455 | 118 | 101 | – | – | inactive |
| CG6805 | SID104186803 | 35.4 | 84 | – | – | active |
| Clbn (Caliban) | SID104194196 | 226 | 156 | – | – | inactive |
| CG4872 | SID104199713 | 94.4 | 109 | – | – | inactive |
| Ssl (Suppressor of Stellate-like) | SID104184449 | 179 | 204 | – | – | inactive |
| ppk13 (pickpocket 13) | SID104182174 | 150 | 90.6 | – | – | inactive |
| cato (cousin of atonal) | SID104187381 | 152 | 172 | – | – | inactive |
| Mtl (Mig-2-like) | SID104196543 | 126 | 118 | – | – | inactive |
| CG30280 | SID104201429 | 199 | 103 | – | – | inactive |
| CG4546 | SID104195385 | 114 | 193 | – | – | inactive |
| Impbeta11 + asRNA:CR43429 | SID104187317 | 135 | 170 | – | – | inactive |
| CG1927 | SID104187938 | 139 | 99.9 | – | – | inactive |
| CG3808 | SID104190169 | 53 | 69.6 | – | – | active |
| CAP | SID104185007 | 96.9 | 120 | – | – | inactive |
| CAP | SID104186535 | 139 | 198 | – | – | inactive |
| CAP | SID104186536 | 107 | 137 | – | – | inactive |
| CAP | SID104186537 | 93.6 | 140 | – | – | inactive |
| CAP | SID104186638 | 130 | 123 | – | – | inactive |
| Tsp42Eh (Tetraspanin 42Eh) | SID104185982 | 82 | 89.9 | – | – | inactive |
| sofe | SID104199543 | 110 | 75.9 | – | – | inactive |
| Alp7 (Alkaline phosphatase 7) | SID104184147 | 51.3 | 176 | – | – | inactive |
| FRG1 (FSHD region gene 1) | SID104190440 | 73.5 | 148 | – | – | inactive |
| Elp4 (Elongator complex protein 4) | SID104182791 | 91.2 | 103 | – | – | inactive |
| haf (hattifattener) | SID104180173 | 176 | 140 | – | – | inactive |
| Ugt301D1 (UDP-glycosyltransferase family 301 member D1) | SID104181813 | 90 | 88.9 | – | – | inactive |
| CG30391 | SID104201283 | 156 | 96 | – | – | inactive |
| CG10467 | SID104189520 | 100 | 52.2 | – | – | inactive |
| CG9084 | SID104187127 | 101 | 110 | – | – | inactive |
| CG5726 | SID104186738 | 132 | 99 | – | – | inactive |
| phol (pleiohomeotic like) | SID104190159 | 107 | 126 | – | – | inactive |
| Eps-15 (Epidermal growth factor receptor pathway substrate clone 15) | SID104184080 | 181 | 81.6 | – | – | inactive |
| Paics (PAICS bifunctional enzyme) | SID104200097 | 150 | 134 | – | – | inactive |
| Rnp4F (RNA-binding protein 4F) | SID104198498 | 135 | 94.2 | – | – | inactive |
| crol (crooked legs) | SID104183306 | 113 | 91.3 | – | – | inactive |
| crol (crooked legs) | SID104201124 | 151 | 105 | – | – | inactive |
| cer (crammer) | SID104185784 | 140 | 172 | – | – | inactive |
| CG15483 | SID104182285 | 115 | 108 | – | – | inactive |
| Lcp65Af | SID104191005 | 91.7 | 68 | – | – | inactive |
| CG5506 | SID104190303 | 187 | 193 | – | – | inactive |
| dcma (decima) | SID104180038 | 89.4 | 130 | – | – | inactive |
| dcma (decima) | SID104180130 | 168 | 97.4 | – | – | inactive |
| CG9164 | SID104198879 | 95.2 | 88.7 | – | – | inactive |
| CG9164 | SID104199954 | 128 | 108 | – | – | inactive |
| CG14177 (retired record) | SID104189968 | 102 | 97.5 | 157 | 94.9 | inactive |
| Teh3 (tipE homolog 3) | SID104188329 | 81.8 | 41.3 | – | – | inactive |
| msk (moleskin) | SID104191132 | 114 | 97.1 | – | – | inactive |
| fne (found in neurons) | SID104200124 | 86.6 | 93.9 | – | – | inactive |
| fne (found in neurons) | SID104201891 | 61 | 162 | – | – | inactive |
